Test results from the supplement of paper PMC10849652.
The other results are listed elsewhere or left out.

By UniProt entry, the sequences of proteins in these tests, tags left out. Where a name states a change or a piece, a line headed by the entry shows the natural chain unless it says otherwise.
UniProt Q8N8R7: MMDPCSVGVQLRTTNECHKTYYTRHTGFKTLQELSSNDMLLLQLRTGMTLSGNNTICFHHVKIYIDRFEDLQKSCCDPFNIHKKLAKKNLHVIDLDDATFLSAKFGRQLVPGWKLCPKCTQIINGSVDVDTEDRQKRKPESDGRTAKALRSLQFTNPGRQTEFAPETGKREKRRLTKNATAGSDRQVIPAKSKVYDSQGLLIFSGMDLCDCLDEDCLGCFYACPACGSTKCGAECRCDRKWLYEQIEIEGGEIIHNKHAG
UniProt Q8IUX4: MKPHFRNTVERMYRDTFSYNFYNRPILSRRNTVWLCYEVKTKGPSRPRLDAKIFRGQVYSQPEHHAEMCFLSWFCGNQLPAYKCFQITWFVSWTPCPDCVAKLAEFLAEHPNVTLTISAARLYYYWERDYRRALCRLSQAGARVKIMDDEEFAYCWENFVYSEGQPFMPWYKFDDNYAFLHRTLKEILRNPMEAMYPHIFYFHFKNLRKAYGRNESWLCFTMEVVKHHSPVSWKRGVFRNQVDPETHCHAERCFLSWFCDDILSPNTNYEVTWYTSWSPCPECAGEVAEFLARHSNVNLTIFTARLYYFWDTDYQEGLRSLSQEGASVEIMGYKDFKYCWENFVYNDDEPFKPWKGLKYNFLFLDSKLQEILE
UniProt Q9NWB6: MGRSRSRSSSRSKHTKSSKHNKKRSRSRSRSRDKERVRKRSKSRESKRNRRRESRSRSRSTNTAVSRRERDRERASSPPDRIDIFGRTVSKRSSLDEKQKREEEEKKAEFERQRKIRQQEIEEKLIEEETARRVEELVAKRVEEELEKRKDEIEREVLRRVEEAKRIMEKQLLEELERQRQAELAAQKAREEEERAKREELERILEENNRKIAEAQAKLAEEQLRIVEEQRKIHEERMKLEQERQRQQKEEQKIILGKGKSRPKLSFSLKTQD
UniProt Q9H6L4: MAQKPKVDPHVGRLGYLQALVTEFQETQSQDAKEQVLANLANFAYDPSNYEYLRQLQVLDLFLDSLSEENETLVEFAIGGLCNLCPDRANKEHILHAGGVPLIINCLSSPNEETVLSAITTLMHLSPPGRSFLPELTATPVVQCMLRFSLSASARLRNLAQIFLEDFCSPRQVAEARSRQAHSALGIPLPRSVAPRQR
UniProt Q7Z5H3: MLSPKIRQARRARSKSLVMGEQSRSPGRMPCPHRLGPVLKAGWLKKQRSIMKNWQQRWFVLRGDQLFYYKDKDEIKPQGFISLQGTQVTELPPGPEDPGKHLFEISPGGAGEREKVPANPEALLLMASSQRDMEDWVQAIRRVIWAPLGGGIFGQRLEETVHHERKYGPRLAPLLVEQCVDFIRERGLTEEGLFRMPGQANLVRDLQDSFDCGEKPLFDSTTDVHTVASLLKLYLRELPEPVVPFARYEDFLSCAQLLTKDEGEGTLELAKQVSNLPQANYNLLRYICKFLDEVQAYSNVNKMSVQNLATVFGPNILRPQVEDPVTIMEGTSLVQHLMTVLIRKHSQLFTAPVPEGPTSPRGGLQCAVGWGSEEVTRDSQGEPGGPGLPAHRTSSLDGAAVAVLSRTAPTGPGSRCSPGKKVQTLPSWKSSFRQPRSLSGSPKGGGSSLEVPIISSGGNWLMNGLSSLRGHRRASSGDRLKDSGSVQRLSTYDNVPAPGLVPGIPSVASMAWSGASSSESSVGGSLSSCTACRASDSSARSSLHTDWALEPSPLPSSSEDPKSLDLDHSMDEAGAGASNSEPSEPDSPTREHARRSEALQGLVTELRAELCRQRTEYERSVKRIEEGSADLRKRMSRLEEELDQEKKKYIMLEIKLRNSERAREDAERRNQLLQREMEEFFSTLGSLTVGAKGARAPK
UniProt Q66PJ3: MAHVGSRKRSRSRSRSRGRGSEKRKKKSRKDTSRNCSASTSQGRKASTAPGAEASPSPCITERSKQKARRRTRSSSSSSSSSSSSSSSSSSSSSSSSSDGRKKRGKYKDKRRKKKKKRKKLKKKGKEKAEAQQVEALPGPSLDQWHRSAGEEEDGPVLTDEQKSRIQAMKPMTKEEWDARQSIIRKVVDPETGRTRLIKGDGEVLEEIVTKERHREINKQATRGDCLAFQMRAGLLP
UniProt P02656: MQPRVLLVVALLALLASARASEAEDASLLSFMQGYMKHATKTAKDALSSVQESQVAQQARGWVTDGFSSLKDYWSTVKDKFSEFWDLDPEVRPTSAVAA
UniProt Q5VV41: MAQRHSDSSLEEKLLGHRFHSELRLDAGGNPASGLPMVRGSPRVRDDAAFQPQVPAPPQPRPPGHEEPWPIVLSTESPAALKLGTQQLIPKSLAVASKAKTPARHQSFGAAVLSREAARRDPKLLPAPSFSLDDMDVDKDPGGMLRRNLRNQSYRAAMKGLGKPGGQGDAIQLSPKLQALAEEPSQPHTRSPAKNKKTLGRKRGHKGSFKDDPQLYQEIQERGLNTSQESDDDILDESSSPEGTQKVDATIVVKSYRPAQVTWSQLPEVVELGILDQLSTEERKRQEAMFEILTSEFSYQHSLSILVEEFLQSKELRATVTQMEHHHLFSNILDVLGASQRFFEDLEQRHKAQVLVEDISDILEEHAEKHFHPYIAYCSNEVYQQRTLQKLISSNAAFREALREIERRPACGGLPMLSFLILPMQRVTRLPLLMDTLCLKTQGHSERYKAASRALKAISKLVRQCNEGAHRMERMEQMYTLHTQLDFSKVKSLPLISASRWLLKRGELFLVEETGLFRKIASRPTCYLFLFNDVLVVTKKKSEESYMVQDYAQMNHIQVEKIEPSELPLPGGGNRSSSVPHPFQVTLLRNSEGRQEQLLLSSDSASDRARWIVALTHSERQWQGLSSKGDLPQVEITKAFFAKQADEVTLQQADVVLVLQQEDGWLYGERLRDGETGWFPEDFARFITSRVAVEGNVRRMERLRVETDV
UniProt Q8IWW6: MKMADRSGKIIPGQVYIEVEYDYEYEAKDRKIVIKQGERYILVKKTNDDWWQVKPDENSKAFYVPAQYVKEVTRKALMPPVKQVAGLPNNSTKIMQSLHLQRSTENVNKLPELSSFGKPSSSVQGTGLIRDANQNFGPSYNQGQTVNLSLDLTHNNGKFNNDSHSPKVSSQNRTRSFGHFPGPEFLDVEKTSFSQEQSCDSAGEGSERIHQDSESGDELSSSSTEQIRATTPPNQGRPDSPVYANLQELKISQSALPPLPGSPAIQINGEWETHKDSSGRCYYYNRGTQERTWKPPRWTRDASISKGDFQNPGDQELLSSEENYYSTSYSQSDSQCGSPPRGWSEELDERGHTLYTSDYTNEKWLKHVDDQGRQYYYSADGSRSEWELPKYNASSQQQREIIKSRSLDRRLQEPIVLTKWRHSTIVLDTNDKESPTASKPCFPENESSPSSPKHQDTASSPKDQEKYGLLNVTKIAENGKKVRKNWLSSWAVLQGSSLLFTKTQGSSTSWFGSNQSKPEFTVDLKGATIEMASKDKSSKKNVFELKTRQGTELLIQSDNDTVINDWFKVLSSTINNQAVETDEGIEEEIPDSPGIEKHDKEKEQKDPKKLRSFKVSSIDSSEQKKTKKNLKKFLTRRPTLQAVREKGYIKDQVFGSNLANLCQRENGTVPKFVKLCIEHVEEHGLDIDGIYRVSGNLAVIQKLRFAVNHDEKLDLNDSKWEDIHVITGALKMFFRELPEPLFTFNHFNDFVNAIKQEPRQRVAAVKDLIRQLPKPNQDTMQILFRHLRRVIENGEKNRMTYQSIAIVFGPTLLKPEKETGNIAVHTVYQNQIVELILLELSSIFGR
UniProt P25054, whole entry, looked up: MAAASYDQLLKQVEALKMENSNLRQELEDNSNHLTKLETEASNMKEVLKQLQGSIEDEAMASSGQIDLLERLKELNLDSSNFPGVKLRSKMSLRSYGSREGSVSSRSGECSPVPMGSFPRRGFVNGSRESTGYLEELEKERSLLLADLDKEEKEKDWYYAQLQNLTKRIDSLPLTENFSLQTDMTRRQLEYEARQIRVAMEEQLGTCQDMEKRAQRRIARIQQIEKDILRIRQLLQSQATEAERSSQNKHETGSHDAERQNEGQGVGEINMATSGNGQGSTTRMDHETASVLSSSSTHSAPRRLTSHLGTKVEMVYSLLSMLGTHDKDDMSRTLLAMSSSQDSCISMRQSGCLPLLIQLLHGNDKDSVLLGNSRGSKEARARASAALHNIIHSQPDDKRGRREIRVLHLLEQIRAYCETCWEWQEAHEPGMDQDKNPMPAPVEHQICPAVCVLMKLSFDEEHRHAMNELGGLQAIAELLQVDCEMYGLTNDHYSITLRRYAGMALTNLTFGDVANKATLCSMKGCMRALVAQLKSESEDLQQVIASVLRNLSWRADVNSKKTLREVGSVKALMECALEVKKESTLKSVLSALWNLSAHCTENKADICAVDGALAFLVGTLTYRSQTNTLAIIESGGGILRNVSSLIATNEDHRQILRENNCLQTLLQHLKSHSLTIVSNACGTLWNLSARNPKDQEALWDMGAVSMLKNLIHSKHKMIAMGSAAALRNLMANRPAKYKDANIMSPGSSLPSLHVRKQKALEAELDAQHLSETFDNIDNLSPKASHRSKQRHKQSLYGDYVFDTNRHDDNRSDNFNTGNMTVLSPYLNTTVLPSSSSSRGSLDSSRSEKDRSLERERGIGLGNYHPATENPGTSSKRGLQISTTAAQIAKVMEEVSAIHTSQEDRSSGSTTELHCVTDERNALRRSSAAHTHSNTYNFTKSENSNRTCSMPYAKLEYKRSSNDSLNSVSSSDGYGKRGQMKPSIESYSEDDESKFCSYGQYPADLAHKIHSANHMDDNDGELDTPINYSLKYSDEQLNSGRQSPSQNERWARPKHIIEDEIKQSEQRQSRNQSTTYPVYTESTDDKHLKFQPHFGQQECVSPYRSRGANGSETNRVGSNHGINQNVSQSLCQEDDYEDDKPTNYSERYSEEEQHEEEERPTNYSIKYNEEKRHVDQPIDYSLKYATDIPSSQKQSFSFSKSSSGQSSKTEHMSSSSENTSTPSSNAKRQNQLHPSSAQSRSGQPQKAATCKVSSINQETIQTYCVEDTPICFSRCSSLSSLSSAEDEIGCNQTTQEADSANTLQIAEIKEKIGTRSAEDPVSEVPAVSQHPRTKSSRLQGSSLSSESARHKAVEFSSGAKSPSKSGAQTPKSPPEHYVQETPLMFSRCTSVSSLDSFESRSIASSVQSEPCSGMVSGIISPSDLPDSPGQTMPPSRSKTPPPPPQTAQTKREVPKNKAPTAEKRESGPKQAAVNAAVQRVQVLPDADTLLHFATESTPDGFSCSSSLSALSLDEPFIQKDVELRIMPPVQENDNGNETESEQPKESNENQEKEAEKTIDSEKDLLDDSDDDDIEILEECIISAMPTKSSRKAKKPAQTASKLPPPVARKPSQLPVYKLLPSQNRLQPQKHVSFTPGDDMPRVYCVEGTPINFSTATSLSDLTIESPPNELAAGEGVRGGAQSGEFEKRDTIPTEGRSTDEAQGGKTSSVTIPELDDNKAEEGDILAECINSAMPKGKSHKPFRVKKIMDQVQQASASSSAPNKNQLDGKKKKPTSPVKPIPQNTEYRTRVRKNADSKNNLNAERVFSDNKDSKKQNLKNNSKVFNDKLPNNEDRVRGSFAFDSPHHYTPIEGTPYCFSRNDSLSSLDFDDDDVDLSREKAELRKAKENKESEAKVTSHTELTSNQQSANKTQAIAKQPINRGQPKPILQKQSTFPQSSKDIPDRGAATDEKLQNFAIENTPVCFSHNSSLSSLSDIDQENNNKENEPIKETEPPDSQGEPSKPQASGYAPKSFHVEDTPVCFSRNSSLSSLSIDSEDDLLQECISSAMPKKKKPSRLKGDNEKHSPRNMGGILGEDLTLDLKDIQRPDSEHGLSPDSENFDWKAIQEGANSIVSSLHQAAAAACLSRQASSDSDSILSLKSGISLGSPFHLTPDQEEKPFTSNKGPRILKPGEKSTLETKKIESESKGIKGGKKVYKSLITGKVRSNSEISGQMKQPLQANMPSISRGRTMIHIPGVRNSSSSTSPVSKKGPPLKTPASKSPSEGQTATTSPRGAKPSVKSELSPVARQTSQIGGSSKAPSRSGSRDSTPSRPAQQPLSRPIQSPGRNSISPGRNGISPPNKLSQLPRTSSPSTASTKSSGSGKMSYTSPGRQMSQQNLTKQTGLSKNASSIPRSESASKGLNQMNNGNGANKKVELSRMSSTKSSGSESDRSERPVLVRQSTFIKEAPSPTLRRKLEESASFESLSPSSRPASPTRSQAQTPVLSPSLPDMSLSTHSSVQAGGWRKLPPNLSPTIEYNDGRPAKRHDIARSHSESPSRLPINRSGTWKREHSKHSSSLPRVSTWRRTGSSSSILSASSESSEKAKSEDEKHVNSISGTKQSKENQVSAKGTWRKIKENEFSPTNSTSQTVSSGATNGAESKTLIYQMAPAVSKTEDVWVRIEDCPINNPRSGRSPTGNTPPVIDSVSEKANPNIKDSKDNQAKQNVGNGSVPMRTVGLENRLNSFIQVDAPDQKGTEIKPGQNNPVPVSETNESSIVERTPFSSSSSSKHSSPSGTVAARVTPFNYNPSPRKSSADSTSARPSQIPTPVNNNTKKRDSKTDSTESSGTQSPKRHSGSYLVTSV

How the values were obtained:
Assay in all cases: log2 fold change, soluble protein after heating vs DMSO (PISA); higher = thermal stabilisation; K562 lysate, 10 uM; active = over 0.2 and 3.5 SD of the protein, either way, in both replicates (recomputed)
nilotinib = compound: Cc1cn(-c2cc(NC(=O)c3ccc(C)c(Nc4nccc(-c5cccnc5)n4)c3)cc(C(F)(F)F)c2)cn1 [nilotinib]
How it was run: (§1)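 A 30 min treatment with 10 μM compound was applied to crude K562 extract at 1 mg/mL protein in PBS pH 7.4 with 1 mM MgCl2. Heating for 3 min spanned 48°C-58°C, after which aliquots were pooled, adjusted to 0.5% NP-40 at 4°C and spun at 21,000xg for 90 min. TMTpro 16plex LC-MS/MS of the supernatant, with channel sums equalised, gave values recorded as log-two fold change in thermal stability against solvent controls, from duplicates.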

[1] = compound: Cc1nc(Nc2n[nH]c3c2CN(C(=O)N[C@H](CN(C)C)c2ccccc2)C3(C)C)c2sccc2n1
How it was run: as §1

[2] = compound: Cc1ncc(-c2ccnc(Nc3ccc(S(C)(=O)=O)cc3)n2)n1C(C)C
How it was run: as §1

quisinostat = compound: Cn1cc(CNCC2CCN(c3ncc(C(=O)NO)cn3)CC2)c2ccccc21 [quisinostat]
How it was run: as §1

tipifarnib = compound: Cn1cncc1[C@@](N)(c1ccc(Cl)cc1)c1ccc2c(c1)c(-c1cccc(Cl)c1)cc(=O)n2C [tipifarnib]
How it was run: as §1

[3] = compound: NC(=O)Nc1cc(-c2cccc(F)c2)sc1C(=O)N[C@H]1CCCNC1
How it was run: as §1

[4] = compound: NC(=O)c1cnc(N[C@@H]2CCCC[C@@H]2N)nc1Nc1cccc(-n2nccn2)c1
How it was run: as §1

[5] = compound: NC1(c2ccc(-c3nc4ccn5c(=O)[nH]nc5c4cc3-c3ccccc3)cc2)CCC1
How it was run: as §1

[6] = compound: NCC(=O)Nc1ccc(-n2nc(C(F)(F)F)cc2-c2ccc3c(ccc4ccccc43)c2)cc1
How it was run: as §1

vorinostat = compound: O=C(CCCCCCC(=O)Nc1ccccc1)NO [vorinostat]
How it was run: as §1

silmitasertib = compound: O=C(O)c1ccc2c(c1)nc(Nc1cccc(Cl)c1)c1ccncc12 [silmitasertib]
How it was run: as §1

[7] = compound: O=C1NC(=O)C(c2cnc3ccccn23)=C1c1cn2c3c(cc(F)cc13)CN(C(=O)N1CCCCC1)CC2
How it was run: as §1

entospletinib = compound: c1cn2cc(-c3ccc4cn[nH]c4c3)nc(Nc3ccc(N4CCOCC4)cc3)c2n1 [entospletinib]
How it was run: as §1

dasatinib = compound: Cc1nc(Nc2ncc(C(=O)Nc3c(C)cccc3Cl)s2)cc(N2CCN(CCO)CC2)n1 [dasatinib]
How it was run: as §1

[8] = compound: Cn1cc(-c2ccc3c(c2)CCN3C(=O)Cc2cccc(C(F)(F)F)c2)c2c(N)ncnc21
How it was run: as §1

Measured: log2 fold change

ARL5B (UniProt Q96KC2)
inactive: nilotinib -0.068 | [1] 0.051 | [2] -0.007 | quisinostat 0.14 | tipifarnib -0.056 | [3] 0.029 | [4] 0.051 | [5] -0.069 | [6] -0.025 | vorinostat 0.121 | silmitasertib -0.2 | [7] -0.042 | entospletinib 0.02

ARMCX5 (UniProt Q6P1M9)
inactive: nilotinib 0.035 | [1] 0.009 | dasatinib -0.039 | [2] 0.037 | [8] -0.07 | tipifarnib -0.023 | [4] 0.02 | [5] -0.027 | [6] -0.233 | vorinostat 0.102 | silmitasertib 0.013 | entospletinib 0.088

ARRB1 (UniProt P49407)
inactive: nilotinib -0.035 | [1] -0.025 | dasatinib 0.015 | [2] 0.051 | [8] -0.027 | quisinostat 0.01 | tipifarnib 0.055 | [3] -0.004 | [4] -0.012 | [5] 0.017 | [6] 0.016 | vorinostat 0.015 | silmitasertib -0.009 | [7] 0.019 | entospletinib -0.003

APTX isoform 4 (UniProt Q7Z2E3)
inactive: nilotinib 0.129 | [1] 0.01 | [2] -0.065 | tipifarnib 0.214

ARF4 (UniProt P18085)
inactive: nilotinib 0.01 | [1] -0.03 | dasatinib -0.023 | [2] 0.018 | [8] 0.009 | quisinostat -0.154 | tipifarnib -0.053 | [3] -0.015 | [4] 0.011 | [5] -0.012 | [6] -0.063 | vorinostat 0.024 | silmitasertib -0.036 | [7] -0.038 | entospletinib 0.018

ARL14EP (UniProt Q8N8R7)
inactive: nilotinib -0.01 | [1] 0.059 | dasatinib 0.041 | [2] -0.03 | [8] 0.017 | quisinostat -0.005 | tipifarnib 0.039 | [3] 0.068 | [5] 0.07 | [6] 0.075 | vorinostat -0.016 | silmitasertib 0.014 | [7] -0.099

APOBEC3F (UniProt Q8IUX4)
inactive: nilotinib -0.034 | [1] -0.076 | [2] -0.083 | quisinostat -0.173 | tipifarnib 0.025 | [3] -0.069 | [4] -0.016 | [5] -0.317 | [6] 0.102 | vorinostat -0.143 | silmitasertib -0.244 | [7] 0.037 | entospletinib 0.052

Reprinted at random: 2 entries already listed
APTX isoform 4 (UniProt Q7Z2E3)
inactive: nilotinib 0.129 | [1] 0.01 | [2] -0.065 | tipifarnib 0.214

ARL14EP (UniProt Q8N8R7)
inactive: nilotinib -0.01 | [1] 0.059 | dasatinib 0.041 | [2] -0.03 | [8] 0.017 | quisinostat -0.005 | tipifarnib 0.039 | [3] 0.068 | [5] 0.07 | [6] 0.075 | vorinostat -0.016 | silmitasertib 0.014 | [7] -0.099

(list continues)

ARGLU1 (UniProt Q9NWB6)
inactive: nilotinib -0.012 | [1] -0.007 | dasatinib 0.058 | [2] -0.018 | [8] 0.096 | quisinostat 0.022 | tipifarnib -0.043 | [3] -0.133 | [4] -0.012 | [5] 0.016 | [6] 0.01 | vorinostat 0.116 | silmitasertib 0.008 | [7] -0.067 | entospletinib -0.054

ARRDC1-AS1 (UniProt Q9H2J1)
inactive: nilotinib 0.191 | [1] 0.165 | [2] -0.001 | tipifarnib 0.044

ASB1 (UniProt Q9Y576)
inactive: nilotinib 0.006 | [1] -0.06 | [2] 0.125 | quisinostat -0.04 | tipifarnib 0.058 | [3] 0.027 | [6] -0.151 | [7] -0.027 | entospletinib 0.048

ARMC7 (UniProt Q9H6L4)
inactive: dasatinib -0.014 | [8] 0.097 | quisinostat 0.045 | [3] -0.007 | [6] -0.173 | [7] 0.091

ARMC10 isoform 2 (UniProt Q8N2F6)
inactive: dasatinib 0 | [8] 0.102 | entospletinib -0.254

APPBP2 (UniProt Q92624)
inactive: quisinostat 0.037 | [3] 0.17 | [5] -0.059 | vorinostat -0.077 | silmitasertib -0.042 | [7] 0.028

ARL13B (UniProt Q3SXY8)
inactive: dasatinib 0 | [8] -0.012 | quisinostat -0.313 | [3] 0.095 | [4] 0.131 | [5] 0.013 | [6] 0.01 | vorinostat -0.186 | silmitasertib -0.024 | [7] -0.064

ARHGAP28 (UniProt Q9P2N2)
inactive: dasatinib -0.265 | [8] 0.013 | [4] 0.088 | [5] -0.014 | vorinostat 0.048 | silmitasertib -0.034

ARHGAP22 isoform 2 (UniProt Q7Z5H3)
inactive: dasatinib -0.007 | [8] 0.015 | quisinostat -0.053 | [3] 0.062 | [4] 0 | [5] -0.107 | vorinostat 0.146 | silmitasertib -0.108 | [7] 0.21 | entospletinib 0.019

ARL6IP4 isoform 4 (UniProt Q66PJ3)
inactive: [4] -0.197 | [6] 0.163

ASAP2 (UniProt O43150)
inactive: [4] -0.058

APOC3 (UniProt P02656)
inactive: dasatinib -0.225 | [8] 0.21 | quisinostat 0.245 | [3] -0.097 | [6] 0.095 | [7] -0.124 | entospletinib -0.132

APOH (UniProt P02749)
inactive: quisinostat -0.082 | [3] 0.082 | [4] 0.062 | [7] 0.016

APPL2 isoform 3 (UniProt Q8NEU8)
inactive: dasatinib 0.028 | [8] 0.127 | quisinostat -0.056 | [3] 0.057 | [4] -0.018 | [5] -0.074 | [6] -0.105 | vorinostat -0.078 | silmitasertib 0.036 | [7] -0.058 | entospletinib -0.007

ARHGEF12 isoform 2 (UniProt Q9NZN5)
inactive: quisinostat 0.032 | [3] 0.038 | [7] 0.074 | entospletinib 0.068

ARHGAP24 (UniProt Q8N264)
inactive: nilotinib 0.016 | [1] 0.074 | [2] 0.15 | tipifarnib -0.031 | [5] -0.111 | [6] 0.09 | vorinostat -0.026 | silmitasertib -0.024 | entospletinib 0.016

ART4 (UniProt Q93070)
inactive: [6] 0.014 | entospletinib -0.064

ARHGAP15 (UniProt Q53QZ3)
inactive: quisinostat 0.142 | [3] 0.268 | [4] -0.013 | [7] -0.215 | entospletinib 0.006

ARHGEF16 (UniProt Q5VV41)
inactive: [5] 0.062 | vorinostat -0.182 | silmitasertib 0.039 | entospletinib 0.175

ARHGAP12 isoform 3 (UniProt Q8IWW6)
inactive: dasatinib 0.046 | [8] 0.148 | [6] -0.163

ARHGAP27 (UniProt Q6ZUM4)
inactive: [6] 0.067

AP5S1 (UniProt Q9NUS5)
inactive: dasatinib 0.001 | [8] -0.071 | quisinostat 0.086 | [3] 0.009 | [4] -0.058 | [5] 0.132 | vorinostat 0.075 | silmitasertib -0.299 | [7] 0.044 | entospletinib 0.199

APBA3 (UniProt O96018)
inactive: quisinostat -0.172 | [3] 0.051 | [4] 0.172 | [5] -0.066 | [6] 0.223 | vorinostat 0.018 | silmitasertib -0.083 | [7] 0.115 | entospletinib -0.091

ARMC8 (UniProt C9JAA7)
inactive: entospletinib -0.025

ARHGAP39 isoform 2 (UniProt Q9C0H5)
inactive: quisinostat 0.13 | [3] -0.034 | [4] 0.094 | [7] 0.115

APC (UniProt P25054)
inactive: dasatinib 0.019 | [8] 0.049 | quisinostat -0.066 | [3] 0.014 | [5] 0.093 | [6] -0.099 | vorinostat -0.025 | silmitasertib -0.007 | [7] -0.021 | entospletinib -0.103

ARMC8 isoform 6 (UniProt Q8IUR7)
inactive: [4] 0.071 | [5] 0.082 | vorinostat 0.037 | silmitasertib 0.005

ARF1 (UniProt P84077)
inactive: quisinostat -0.055 | [3] 0.033 | [4] 0.155 | [5] -0.05 | vorinostat 0.107 | silmitasertib -0.705 | [7] -0.023

ARRDC3 (UniProt Q96B67)
inactive: [5] -0.314 | vorinostat 0.39 | silmitasertib -0.003

ARSK (UniProt Q6UWY0)
inactive: dasatinib -0.054 | [8] -0.041 | [4] -0.025 | [5] 0.044 | [6] 0.167 | vorinostat 0.14 | silmitasertib -0.005 | entospletinib -0.099

APLF (UniProt Q8IW19)
inactive: quisinostat -0.069 | [3] 0.069 | [4] -0.051 | [5] 0.037 | [6] -0.081 | vorinostat -0.118 | silmitasertib -0.037 | [7] -0.006 | entospletinib -0.036

APOD (UniProt P05090)
inactive: dasatinib 0.411 | [8] 0.275 | quisinostat -0.195 | [3] -0.105 | [4] 0.942 | [7] 0.368 | entospletinib 0.033

ARL6IP4 isoform 2 (UniProt Q66PJ3)
inactive: [4] -0.053

APOL1 isoform 2 (UniProt O14791)
inactive: dasatinib -0.203 | [8] -0.109 | entospletinib 0.086

ARL4A (UniProt P40617)
inactive: nilotinib 0.078 | [1] -0.061 | [2] -0.093 | tipifarnib -0.14 | entospletinib -0.042

ARL6 isoform 2 (UniProt Q9H0F7)
inactive: quisinostat 0.261 | [3] -0.046 | [5] 0.105 | vorinostat -0.237 | silmitasertib 0.104 | [7] -0.185
